Measurements reported in US9187396B2, “Compositions and methods for the treatment of glomerulonephritis” (Avexxin AS, priority 2009, dated 2015).
Some entries share one result that the patent states for a list of compounds. At least one structure is not confirmed: it was looked up by name or label, or the drawing left a doubt.

System: PGE2 formation in rat renal mesangial cells
Assay: cytokine-stimulated PGE2 formation in mesangial cells (ELISA)
Type: cell-based
Conditions: mesangial cells stimulated with IL-1β (1 nM)

CC/C=C\C/C=C\C/C=C\C/C=C\CC/C=C/CSCC(=O)C(F)(F)F [AKH-217]
concentration giving maximal effects on reduction of IL-1β-induced PGE2 formation: 3 to 10 µM
